# Assay results as given in publication PMC2698154.
# Chains of the proteins cited; added tags and fusions are not shown.
# UniProt P06536: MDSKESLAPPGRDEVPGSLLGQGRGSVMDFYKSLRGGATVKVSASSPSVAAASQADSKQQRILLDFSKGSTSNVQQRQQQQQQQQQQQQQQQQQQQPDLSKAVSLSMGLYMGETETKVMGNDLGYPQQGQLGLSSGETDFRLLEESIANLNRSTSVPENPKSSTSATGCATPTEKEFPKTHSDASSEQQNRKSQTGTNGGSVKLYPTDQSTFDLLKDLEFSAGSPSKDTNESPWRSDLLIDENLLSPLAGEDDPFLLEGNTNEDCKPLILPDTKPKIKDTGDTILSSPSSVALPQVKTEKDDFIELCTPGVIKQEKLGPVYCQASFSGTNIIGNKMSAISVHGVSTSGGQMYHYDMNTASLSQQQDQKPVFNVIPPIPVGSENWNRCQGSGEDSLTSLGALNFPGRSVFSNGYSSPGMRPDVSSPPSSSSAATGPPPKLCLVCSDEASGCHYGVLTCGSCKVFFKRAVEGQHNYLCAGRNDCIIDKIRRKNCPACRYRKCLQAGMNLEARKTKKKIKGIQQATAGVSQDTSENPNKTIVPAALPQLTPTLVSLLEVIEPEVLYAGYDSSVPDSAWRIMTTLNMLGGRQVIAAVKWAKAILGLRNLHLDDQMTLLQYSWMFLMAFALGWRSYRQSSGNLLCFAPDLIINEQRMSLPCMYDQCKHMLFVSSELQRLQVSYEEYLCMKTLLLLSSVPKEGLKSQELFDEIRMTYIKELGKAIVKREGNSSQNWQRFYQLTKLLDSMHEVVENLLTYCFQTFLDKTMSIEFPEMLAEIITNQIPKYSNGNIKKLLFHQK
# UniProt P31000: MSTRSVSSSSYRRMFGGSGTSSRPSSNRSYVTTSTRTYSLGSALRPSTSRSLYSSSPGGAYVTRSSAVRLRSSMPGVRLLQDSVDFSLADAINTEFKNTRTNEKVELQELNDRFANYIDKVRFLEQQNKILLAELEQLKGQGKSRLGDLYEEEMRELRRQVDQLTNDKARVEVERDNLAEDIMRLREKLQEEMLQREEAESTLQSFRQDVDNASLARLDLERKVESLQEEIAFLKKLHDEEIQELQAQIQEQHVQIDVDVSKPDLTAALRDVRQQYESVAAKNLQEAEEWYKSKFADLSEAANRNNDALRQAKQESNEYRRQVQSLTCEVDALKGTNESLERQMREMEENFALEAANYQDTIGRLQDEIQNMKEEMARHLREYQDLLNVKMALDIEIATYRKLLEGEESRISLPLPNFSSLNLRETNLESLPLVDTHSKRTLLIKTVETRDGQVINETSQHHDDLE
# UniProt P63018: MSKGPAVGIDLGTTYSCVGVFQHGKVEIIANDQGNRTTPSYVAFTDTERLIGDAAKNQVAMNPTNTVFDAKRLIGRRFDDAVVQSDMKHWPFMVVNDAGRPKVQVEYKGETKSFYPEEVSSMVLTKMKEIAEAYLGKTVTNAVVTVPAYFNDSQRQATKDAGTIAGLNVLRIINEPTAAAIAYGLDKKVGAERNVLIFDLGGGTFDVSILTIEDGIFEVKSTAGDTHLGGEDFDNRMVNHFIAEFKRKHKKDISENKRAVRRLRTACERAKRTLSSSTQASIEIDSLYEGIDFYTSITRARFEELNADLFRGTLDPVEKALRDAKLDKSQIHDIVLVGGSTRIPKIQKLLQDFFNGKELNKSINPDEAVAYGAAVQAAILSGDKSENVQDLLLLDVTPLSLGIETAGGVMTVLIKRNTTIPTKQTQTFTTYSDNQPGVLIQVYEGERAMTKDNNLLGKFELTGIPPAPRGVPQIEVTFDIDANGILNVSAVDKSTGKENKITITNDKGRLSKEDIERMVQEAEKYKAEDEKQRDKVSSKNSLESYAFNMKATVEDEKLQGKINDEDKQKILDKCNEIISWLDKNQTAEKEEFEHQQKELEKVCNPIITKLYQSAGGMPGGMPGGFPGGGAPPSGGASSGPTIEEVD
# Results are given in words; binding and its absence hold for the method and conditions named. Binding seen in cells or lysates may run through a third protein. Some binding calls cover weakened binding; strength is not graded here.
# Tests used:
# [1] = target: glucocorticoid receptor (rat (endogenous in C6D8 and C6D10)) (UniProt P06536); assay: co-IP; immunoprecipitation of GR from the detergent soluble fraction (supernatant lysis buffer); blots for HSC70 and HSP90
# [2] = target: glucocorticoid receptor (rat (endogenous in C6D8 and C6D10)) (UniProt P06536); assay: co-IP; immunoprecipitation of GR from the cytoskeleton fraction of anchoring competent cells; blots for nestin, tubulin, HSC70 and HSP90
# [3] = target: vimentin (rat (endogenous in C6D8)) (UniProt P31000); assay: co-IP; immunoprecipitation with monoclonal anti-vimentin V9 from the cytoskeleton fraction of C6D8 cells; blot for GR, vimentin and lamin B; control IP with an antibody to measles virus protein
Substance,binding [1],binding [2],binding [3]
HSC70 (from UniProt P63018 1-646),binds,binds,
glucocorticoid receptor (from UniProt P06536 1-795),,,binds
